Results published in the supplement of paper PMC10849652.
Some of the results follow.

Amino acid sequences for entries named in this document (tags omitted). A change or cut given only in a name is not applied to a line headed by its entry.
UniProt Q8WY54: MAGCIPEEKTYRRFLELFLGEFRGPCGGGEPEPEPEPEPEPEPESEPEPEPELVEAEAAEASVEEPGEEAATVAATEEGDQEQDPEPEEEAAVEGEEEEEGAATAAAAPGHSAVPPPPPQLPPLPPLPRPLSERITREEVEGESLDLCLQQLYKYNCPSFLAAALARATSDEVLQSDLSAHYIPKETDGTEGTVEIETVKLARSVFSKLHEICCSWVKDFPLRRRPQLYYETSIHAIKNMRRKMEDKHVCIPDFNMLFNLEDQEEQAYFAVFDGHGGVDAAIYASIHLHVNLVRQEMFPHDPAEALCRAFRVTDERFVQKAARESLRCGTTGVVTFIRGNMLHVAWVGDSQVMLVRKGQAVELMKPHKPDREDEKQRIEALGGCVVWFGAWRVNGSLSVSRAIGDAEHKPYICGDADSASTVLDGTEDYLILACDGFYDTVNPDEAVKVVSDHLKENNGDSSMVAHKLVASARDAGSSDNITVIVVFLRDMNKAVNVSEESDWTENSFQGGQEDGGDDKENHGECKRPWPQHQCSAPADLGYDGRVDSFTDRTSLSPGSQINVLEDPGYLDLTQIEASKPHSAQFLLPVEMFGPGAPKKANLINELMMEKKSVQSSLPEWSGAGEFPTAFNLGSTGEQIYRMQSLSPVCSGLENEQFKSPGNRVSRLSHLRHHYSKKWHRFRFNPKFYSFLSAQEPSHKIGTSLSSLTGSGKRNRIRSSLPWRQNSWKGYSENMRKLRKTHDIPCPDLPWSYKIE
UniProt Q8TF05: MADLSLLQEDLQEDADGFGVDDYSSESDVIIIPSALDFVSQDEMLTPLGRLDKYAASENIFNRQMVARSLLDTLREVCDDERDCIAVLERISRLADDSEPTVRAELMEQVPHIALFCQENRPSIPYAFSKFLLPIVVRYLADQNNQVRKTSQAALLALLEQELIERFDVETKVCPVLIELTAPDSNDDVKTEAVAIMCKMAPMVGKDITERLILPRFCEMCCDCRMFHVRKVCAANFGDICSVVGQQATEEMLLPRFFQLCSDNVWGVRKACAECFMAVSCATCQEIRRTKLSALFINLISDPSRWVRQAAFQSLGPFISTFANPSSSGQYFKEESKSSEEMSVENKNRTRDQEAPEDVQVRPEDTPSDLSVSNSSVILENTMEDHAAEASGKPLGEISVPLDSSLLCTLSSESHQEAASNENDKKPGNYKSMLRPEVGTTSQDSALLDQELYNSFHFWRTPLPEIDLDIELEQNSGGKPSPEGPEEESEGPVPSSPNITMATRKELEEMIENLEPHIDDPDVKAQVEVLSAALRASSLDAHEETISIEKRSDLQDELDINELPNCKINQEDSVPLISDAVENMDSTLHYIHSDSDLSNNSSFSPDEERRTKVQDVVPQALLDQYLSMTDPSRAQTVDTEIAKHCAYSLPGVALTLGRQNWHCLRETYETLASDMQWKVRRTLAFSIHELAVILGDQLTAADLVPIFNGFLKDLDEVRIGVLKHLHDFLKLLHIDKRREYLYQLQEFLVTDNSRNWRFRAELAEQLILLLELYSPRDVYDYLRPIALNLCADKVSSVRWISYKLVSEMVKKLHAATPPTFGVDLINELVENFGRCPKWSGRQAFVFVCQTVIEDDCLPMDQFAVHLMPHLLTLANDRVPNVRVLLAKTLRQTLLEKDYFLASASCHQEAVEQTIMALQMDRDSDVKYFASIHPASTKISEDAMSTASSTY
UniProt Q8TAE6: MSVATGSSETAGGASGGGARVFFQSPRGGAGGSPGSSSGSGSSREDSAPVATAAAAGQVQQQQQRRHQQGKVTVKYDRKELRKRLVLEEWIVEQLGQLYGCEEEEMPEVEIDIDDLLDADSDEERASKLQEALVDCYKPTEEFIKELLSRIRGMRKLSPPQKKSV
UniProt O14744, whole entry, looked up: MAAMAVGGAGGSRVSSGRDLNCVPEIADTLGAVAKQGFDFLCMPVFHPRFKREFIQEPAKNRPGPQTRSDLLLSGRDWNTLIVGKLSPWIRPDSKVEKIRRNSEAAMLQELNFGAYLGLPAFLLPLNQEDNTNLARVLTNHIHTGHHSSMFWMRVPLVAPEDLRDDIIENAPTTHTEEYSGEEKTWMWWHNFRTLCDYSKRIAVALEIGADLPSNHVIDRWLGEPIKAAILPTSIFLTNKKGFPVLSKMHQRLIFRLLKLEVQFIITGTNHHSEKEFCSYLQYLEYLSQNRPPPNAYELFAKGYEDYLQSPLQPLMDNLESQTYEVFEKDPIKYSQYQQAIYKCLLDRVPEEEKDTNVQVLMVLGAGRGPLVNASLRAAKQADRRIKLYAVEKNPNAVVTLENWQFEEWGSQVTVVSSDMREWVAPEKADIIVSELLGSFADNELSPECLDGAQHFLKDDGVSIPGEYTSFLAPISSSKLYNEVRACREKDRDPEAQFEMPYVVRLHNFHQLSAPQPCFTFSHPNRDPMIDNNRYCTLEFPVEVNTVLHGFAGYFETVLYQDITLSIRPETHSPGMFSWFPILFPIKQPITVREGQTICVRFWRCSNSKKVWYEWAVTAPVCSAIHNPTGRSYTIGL
UniProt Q9Y570: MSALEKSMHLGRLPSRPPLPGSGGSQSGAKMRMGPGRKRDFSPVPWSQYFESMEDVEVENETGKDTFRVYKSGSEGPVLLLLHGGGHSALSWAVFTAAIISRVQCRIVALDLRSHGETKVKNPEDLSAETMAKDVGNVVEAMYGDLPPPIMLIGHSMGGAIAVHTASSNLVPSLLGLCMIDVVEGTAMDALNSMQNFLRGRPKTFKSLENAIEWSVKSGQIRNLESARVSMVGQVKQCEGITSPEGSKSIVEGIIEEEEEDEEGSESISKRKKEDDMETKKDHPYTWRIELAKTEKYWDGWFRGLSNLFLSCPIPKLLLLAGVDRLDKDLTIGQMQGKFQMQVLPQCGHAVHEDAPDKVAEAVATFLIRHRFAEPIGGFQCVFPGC
UniProt P41236: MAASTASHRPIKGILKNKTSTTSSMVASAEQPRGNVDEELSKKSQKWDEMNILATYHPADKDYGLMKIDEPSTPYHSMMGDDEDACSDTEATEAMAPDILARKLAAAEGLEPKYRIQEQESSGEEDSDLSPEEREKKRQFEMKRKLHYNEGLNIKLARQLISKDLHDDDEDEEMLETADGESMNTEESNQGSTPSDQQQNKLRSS
UniProt P30044: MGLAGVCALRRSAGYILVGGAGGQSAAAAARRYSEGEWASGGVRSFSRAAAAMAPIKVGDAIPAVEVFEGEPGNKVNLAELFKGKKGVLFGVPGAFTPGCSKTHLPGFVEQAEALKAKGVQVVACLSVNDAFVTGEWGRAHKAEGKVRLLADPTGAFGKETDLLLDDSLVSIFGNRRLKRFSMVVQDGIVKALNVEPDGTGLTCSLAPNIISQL
UniProt P62140, whole entry, looked up: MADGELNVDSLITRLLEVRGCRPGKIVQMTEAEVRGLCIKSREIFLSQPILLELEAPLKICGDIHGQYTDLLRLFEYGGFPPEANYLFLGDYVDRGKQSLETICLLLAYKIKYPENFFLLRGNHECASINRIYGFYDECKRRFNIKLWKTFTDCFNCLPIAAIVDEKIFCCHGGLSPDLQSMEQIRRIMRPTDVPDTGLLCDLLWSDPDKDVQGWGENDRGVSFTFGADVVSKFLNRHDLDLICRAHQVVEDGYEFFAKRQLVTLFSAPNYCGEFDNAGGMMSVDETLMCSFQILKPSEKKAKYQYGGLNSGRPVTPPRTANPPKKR
UniProt Q9UNN8: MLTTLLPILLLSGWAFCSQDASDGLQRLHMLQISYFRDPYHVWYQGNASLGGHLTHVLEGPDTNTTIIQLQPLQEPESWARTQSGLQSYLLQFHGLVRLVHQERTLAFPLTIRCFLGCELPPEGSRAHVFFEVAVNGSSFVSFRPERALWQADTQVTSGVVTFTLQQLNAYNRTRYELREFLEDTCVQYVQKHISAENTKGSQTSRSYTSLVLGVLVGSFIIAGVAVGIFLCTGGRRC
UniProt Q99633: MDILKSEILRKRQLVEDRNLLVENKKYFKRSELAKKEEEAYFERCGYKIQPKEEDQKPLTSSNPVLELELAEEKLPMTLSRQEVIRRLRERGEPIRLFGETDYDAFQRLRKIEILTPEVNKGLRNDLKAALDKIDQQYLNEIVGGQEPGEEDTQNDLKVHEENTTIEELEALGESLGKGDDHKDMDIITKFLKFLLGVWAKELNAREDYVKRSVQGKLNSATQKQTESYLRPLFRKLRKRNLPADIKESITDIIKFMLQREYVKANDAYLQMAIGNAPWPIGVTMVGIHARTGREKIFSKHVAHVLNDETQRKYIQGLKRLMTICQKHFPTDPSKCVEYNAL
UniProt Q96C90: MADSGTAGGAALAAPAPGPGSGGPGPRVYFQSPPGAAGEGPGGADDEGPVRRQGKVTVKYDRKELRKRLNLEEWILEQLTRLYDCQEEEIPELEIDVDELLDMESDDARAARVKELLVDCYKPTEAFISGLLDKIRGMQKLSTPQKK
UniProt Q96SB3: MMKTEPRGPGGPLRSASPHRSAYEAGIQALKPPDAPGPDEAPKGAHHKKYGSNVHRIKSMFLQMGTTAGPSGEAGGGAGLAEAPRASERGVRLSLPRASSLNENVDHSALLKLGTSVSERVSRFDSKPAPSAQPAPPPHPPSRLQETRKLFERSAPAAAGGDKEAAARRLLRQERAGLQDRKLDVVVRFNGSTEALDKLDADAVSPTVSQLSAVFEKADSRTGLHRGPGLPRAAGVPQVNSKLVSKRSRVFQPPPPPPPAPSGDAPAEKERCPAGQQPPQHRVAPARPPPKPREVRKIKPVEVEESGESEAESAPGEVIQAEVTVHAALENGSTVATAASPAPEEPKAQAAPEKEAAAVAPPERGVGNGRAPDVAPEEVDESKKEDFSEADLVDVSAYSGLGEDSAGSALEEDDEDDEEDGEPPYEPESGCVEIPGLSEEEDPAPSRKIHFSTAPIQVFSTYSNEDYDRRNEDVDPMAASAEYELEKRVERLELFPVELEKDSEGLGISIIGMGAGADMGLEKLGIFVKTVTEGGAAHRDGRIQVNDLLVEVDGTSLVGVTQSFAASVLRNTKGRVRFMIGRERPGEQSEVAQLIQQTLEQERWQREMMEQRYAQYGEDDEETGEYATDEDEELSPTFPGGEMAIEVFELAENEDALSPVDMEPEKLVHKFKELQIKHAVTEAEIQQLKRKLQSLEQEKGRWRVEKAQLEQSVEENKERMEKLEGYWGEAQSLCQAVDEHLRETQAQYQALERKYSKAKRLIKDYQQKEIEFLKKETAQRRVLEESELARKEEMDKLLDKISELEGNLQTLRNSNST
UniProt Q5H9R7: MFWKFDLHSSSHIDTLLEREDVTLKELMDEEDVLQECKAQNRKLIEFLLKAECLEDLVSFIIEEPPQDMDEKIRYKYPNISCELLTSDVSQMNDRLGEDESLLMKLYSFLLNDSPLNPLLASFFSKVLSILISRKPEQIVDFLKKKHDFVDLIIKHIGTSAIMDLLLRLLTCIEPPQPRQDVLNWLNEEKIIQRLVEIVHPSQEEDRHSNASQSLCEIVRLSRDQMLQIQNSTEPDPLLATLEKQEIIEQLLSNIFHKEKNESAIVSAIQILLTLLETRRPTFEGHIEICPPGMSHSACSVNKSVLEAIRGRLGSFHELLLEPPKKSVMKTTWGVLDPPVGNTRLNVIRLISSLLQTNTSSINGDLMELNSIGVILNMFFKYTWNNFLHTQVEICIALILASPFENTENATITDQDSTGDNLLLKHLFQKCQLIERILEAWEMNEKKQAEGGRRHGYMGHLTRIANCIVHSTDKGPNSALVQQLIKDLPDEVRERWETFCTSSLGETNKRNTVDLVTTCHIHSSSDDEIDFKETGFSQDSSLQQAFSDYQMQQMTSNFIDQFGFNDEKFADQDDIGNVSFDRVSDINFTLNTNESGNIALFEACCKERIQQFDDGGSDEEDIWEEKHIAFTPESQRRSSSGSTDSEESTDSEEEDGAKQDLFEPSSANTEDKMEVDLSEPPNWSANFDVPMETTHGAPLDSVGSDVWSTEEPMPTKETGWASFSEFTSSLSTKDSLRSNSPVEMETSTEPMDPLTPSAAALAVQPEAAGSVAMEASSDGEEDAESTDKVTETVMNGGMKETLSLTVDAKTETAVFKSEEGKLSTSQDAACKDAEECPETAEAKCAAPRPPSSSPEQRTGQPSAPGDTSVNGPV
UniProt P53041: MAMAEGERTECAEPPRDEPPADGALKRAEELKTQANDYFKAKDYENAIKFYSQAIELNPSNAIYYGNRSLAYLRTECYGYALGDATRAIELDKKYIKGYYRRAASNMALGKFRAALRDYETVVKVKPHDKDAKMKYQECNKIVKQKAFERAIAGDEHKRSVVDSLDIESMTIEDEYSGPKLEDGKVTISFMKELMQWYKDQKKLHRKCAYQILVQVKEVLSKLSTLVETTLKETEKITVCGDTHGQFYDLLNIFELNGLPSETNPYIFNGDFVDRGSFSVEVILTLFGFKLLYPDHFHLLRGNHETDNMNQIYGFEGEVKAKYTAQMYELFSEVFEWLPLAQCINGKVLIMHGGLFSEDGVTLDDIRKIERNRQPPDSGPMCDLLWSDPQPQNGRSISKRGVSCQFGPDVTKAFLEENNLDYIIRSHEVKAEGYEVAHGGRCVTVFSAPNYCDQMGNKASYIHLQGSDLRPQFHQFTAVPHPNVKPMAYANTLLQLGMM

What was measured:
Assay in all cases: log2 fold change, soluble protein after heating vs DMSO (PISA); higher = thermal stabilisation; K562 cells, 10 uM, 30 min; active = over 0.2 and 3.5 SD of the protein, either way, in both replicates (recomputed)
saracatinib = compound: CN1CCN(CCOc2cc(OC3CCOCC3)c3c(Nc4c(Cl)ccc5c4OCO5)ncnc3c2)CC1 [saracatinib]
In short: (§1)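 Aliquots of K562 cells (2×10^6 cells/mL) treated with 10 μM compound for 30 min were heated for 3 min over 48°C-58°C. After pooling and extraction in PBS with 0.5% NP-40 at 4°C, soluble protein from a 21,000xg, 90 min spin was quantified by TMTpro 16plex LC-MS/MS with channel sums equalised. Thermal stability is expressed against control samples, from duplicates, as a log2 fold change.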

sotrastaurin = compound: CN1CCN(c2nc(C3=C(c4c[nH]c5ccccc45)C(=O)NC3=O)c3ccccc3n2)CC1 [sotrastaurin]
In short: as §1

alvocidib = compound: CN1CC[C@H](c2c(O)cc(O)c3c(=O)cc(-c4ccccc4Cl)oc23)[C@H](O)C1 [alvocidib]
In short: as §1

Tubastatin A = compound: CN1CCc2c(c3ccccc3n2Cc2ccc(C(=O)NO)cc2)C1 [Tubastatin A]
In short: as §1

[1] = compound: CNC(=O)C1=CC=CC=C1NC2=NC(=NC=C2Cl)NC3=C(C=C(C=C3)N4CCOCC4)OC
In short: as §1

defactinib = compound: CNC(=O)c1ccc(Nc2ncc(C(F)(F)F)c(NCc3nccnc3N(C)S(C)(=O)=O)n2)cc1 [defactinib]
In short: as §1

rucaparib = compound: CNCc1ccc(-c2[nH]c3cc(F)cc4c3c2CCNC4=O)cc1 [rucaparib]
In short: as §1

[2] = compound: CNc1nc(-c2ccc3c(N)n[nH]c3c2)cc(N2C[C@@H](C(=O)NC3CCCCC3)CC[C@H]2C)n1
In short: as §1

encorafenib = compound: COC(=O)N[C@@H](C)CNc1nccc(-c2cn(C(C)C)nc2-c2cc(Cl)cc(NS(C)(=O)=O)c2F)n1 [encorafenib]
In short: as §1

[3] = compound: COC(=O)[C@H](CCSC)NC(=O)C1=C(C=C(C=C1)NC[C@H](CS)N)C2=CC=CC=C2
In short: as §1

Measured: log2 fold change

PPM1E (UniProt Q8WY54)
inactive: saracatinib -0.059 | sotrastaurin 0.037 | alvocidib -0.241 | Tubastatin A -0.009 | [1] 0.02 | defactinib 0.024 | rucaparib -0.014 | [2] -0.036 | encorafenib 0.002 | [3] 0.006

PPP4R1 (UniProt Q8TF05)
inactive: saracatinib 0.019 | sotrastaurin -0.03 | alvocidib -0.047 | Tubastatin A -0.041 | [1] 0.027 | defactinib -0.035 | rucaparib 0.014 | [2] 0.034 | encorafenib -0.018 | [3] -0.029

PREPL (UniProt Q4J6C6)
inactive: saracatinib -0.001 | sotrastaurin 0.006 | alvocidib -0.057 | Tubastatin A 0.011 | [1] -0.02 | defactinib -0.059 | rucaparib 0.026 | [2] -0.021 | encorafenib 0.018 | [3] 0.017

PPP1R14C (UniProt Q8TAE6)
inactive: saracatinib 0.15 | sotrastaurin 0 | alvocidib -0.048 | Tubastatin A -0.036 | [1] -0.016 | defactinib 0.048 | rucaparib -0.066 | [2] -0.195 | encorafenib 0.033 | [3] 0.074

PROSER2 (UniProt Q86WR7)
inactive: saracatinib -0.065 | sotrastaurin -0.01 | alvocidib 0.022 | Tubastatin A -0.041 | [1] -0.036 | defactinib 0.015 | rucaparib -0.116 | [2] -0.094 | encorafenib 0.004 | [3] -0.025

PRMT5 (UniProt O14744)
inactive: saracatinib -0.009 | sotrastaurin 0.027 | alvocidib 0.21 | Tubastatin A 0 | [1] 0.025 | defactinib 0.019 | rucaparib -0.012 | [2] -0.004 | encorafenib 0 | [3] -0.026

PRKCSH (UniProt K7ELL7)
inactive: saracatinib 0.19 | sotrastaurin -0.007 | alvocidib -0.064 | Tubastatin A 0.105 | [1] -0.068 | defactinib 0.014 | rucaparib -0.038 | [2] 0.012 | encorafenib 0 | [3] 0.089

PPP1R10 (UniProt Q96QC0)
inactive: saracatinib -0.027 | sotrastaurin -0.004 | alvocidib 0.291 | Tubastatin A -0.017 | [1] -0.025 | defactinib 0.391 | rucaparib 0.356 | [2] 0.014 | encorafenib 0.11 | [3] 0.032

PPME1 (UniProt Q9Y570)
inactive: saracatinib -0.004 | sotrastaurin 0.013 | alvocidib -0.043 | Tubastatin A -0.006 | [1] 0.021 | defactinib -0.066 | rucaparib -0.063 | [2] -0.029 | encorafenib -0.001 | [3] 0.013

PRSS21 (UniProt Q9Y6M0)
inactive: saracatinib -0.067 | sotrastaurin 0.03 | alvocidib -0.057 | Tubastatin A 0.049 | [1] 0.013 | defactinib 0.048 | rucaparib 0.008 | [2] 0.021 | encorafenib 0.048 | [3] -0.002

PRRC2A (UniProt P48634)
inactive: saracatinib -0.003 | sotrastaurin 0.053 | alvocidib 0.164 | Tubastatin A 0.042 | [1] 0.002 | defactinib 0.099 | rucaparib 0.226 | [2] 0.041 | encorafenib 0.065 | [3] 0.036

PPP1R2 (UniProt P41236)
inactive: saracatinib 0.01 | sotrastaurin 0.08 | alvocidib -0.007 | Tubastatin A 0.031 | [1] -0.035 | defactinib -0.031 | rucaparib -0.041 | [2] -0.01 | encorafenib -0.027 | [3] 0.015

PRDX5 (UniProt P30044)
inactive: saracatinib 0.062 | sotrastaurin 0.029 | alvocidib 0.004 | Tubastatin A -0.003 | [1] -0.018 | defactinib -0.015 | rucaparib 0.005 | [2] -0.034 | encorafenib -0.017 | [3] 0.019

PPP1CB (UniProt P62140)
inactive: saracatinib 0.015 | sotrastaurin 0.024 | alvocidib -0.05 | Tubastatin A 0.008 | [1] -0.047 | defactinib -0.121 | rucaparib -0.052 | [2] -0.028 | encorafenib 0.002 | [3] -0.022

Two successive entries already listed, for reference:
PRDX5 (UniProt P30044)
inactive: saracatinib 0.062 | sotrastaurin 0.029 | alvocidib 0.004 | Tubastatin A -0.003 | [1] -0.018 | defactinib -0.015 | rucaparib 0.005 | [2] -0.034 | encorafenib -0.017 | [3] 0.019

PPP1CB (UniProt P62140)
inactive: saracatinib 0.015 | sotrastaurin 0.024 | alvocidib -0.05 | Tubastatin A 0.008 | [1] -0.047 | defactinib -0.121 | rucaparib -0.052 | [2] -0.028 | encorafenib 0.002 | [3] -0.022

Continuation:

PRSS2 (UniProt P07478)
inactive: saracatinib 0.062 | sotrastaurin 0.135 | alvocidib 0.133 | Tubastatin A -0.237 | [1] -0.244 | defactinib 0.057 | [2] -0.044 | [3] 0.15

PPP3CC isoform 3 (UniProt P48454)
inactive: saracatinib 0.025 | sotrastaurin 0.029 | alvocidib -0.008 | Tubastatin A -0.011 | [1] 0.027 | defactinib -0.009 | rucaparib -0.024 | [2] -0.017 | encorafenib -0.012 | [3] 0.004

PROCR (UniProt Q9UNN8)
inactive: saracatinib 0.139 | sotrastaurin 0.068 | alvocidib 0.121 | Tubastatin A -0.032 | [1] -0.018 | defactinib 0.055 | rucaparib -0.032 | [2] 0.057 | encorafenib -0.06 | [3] 0.125

PRDX3 (UniProt P30048)
inactive: saracatinib -0.003 | sotrastaurin -0.003 | alvocidib 0.007 | Tubastatin A -0.019 | [1] 0.033 | defactinib -0.003 | rucaparib -0.061 | [2] 0.027 | encorafenib -0.027 | [3] 0.024

PRPF18 (UniProt Q99633)
inactive: saracatinib 0.096 | sotrastaurin -0.054 | alvocidib -0.066 | Tubastatin A 0.116 | [1] -0.038 | defactinib -0.098 | rucaparib -0.121 | [2] 0.131 | encorafenib 0.058 | [3] 0.002

PRPF8 (UniProt Q6P2Q9)
inactive: saracatinib 0.029 | sotrastaurin -0.015 | alvocidib 0.03 | Tubastatin A -0.021 | [1] -0.016 | defactinib 0.116 | rucaparib 0.071 | [2] -0.054 | encorafenib 0.016 | [3] -0.006

PPP1R14B (UniProt Q96C90)
inactive: saracatinib 0.185 | sotrastaurin 0.103 | alvocidib -0.069 | Tubastatin A 0.16 | [1] -0.072 | defactinib -0.011 | rucaparib -0.127 | [2] 0.34 | encorafenib 0.101 | [3] -0.06

PRAME (UniProt P78395)
inactive: saracatinib -0.066 | sotrastaurin -0.025 | alvocidib -0.06 | Tubastatin A 0.156 | [1] -0.02 | defactinib -0.067 | rucaparib 0.047 | [2] -0.023 | encorafenib 0.099 | [3] -0.003

PPP1R9B (UniProt Q96SB3)
inactive: saracatinib -0.027 | sotrastaurin 0.152 | alvocidib 0.128 | Tubastatin A -0.183 | [1] -0.085 | defactinib 0 | rucaparib 0.059 | [2] -0.049 | encorafenib 0.128 | [3] 0.083

PRRC2C isoform 7 (UniProt Q9Y520)
inactive: saracatinib -0.012 | sotrastaurin 0.034 | alvocidib 0.21 | Tubastatin A 0.035 | [1] -0.011 | defactinib 0.165 | rucaparib 0.199 | [2] 0.042 | encorafenib 0.061 | [3] 0.03

PRRC2B (UniProt Q5JSZ5)
inactive: saracatinib 0.046 | sotrastaurin 0.05 | alvocidib -0.002 | Tubastatin A 0.071 | [1] -0.022 | defactinib 0.007 | rucaparib 0 | [2] -0.065 | encorafenib -0.059 | [3] 0.028

PRKAG2 (UniProt Q9UGJ0)
inactive: saracatinib 0.011 | sotrastaurin 0.002 | alvocidib -0.032 | Tubastatin A -0.033 | [1] -0.125 | defactinib -0.019 | rucaparib -0.045 | [2] -0.071 | encorafenib 0.053 | [3] 0.036

PPP6R3 isoform 5 (UniProt Q5H9R7)
inactive: saracatinib 0.061 | sotrastaurin 0.002 | alvocidib -0.05 | Tubastatin A -0.02 | [1] -0.014 | defactinib -0.046 | rucaparib -0.013 | [2] -0.019 | encorafenib -0.007 | [3] 0.015

PROSER3, A0A2R8Y8D9
inactive: saracatinib 0.005 | sotrastaurin -0.06 | alvocidib -0.069 | Tubastatin A -0.037 | rucaparib 0.081 | [2] -0.15 | encorafenib 0.118

PPP5C (UniProt P53041)
inactive: saracatinib 0.028 | sotrastaurin 0.053 | alvocidib -0.034 | Tubastatin A -0.042 | [1] -0.025 | defactinib -0.008 | rucaparib 0.009 | [2] 0.013 | encorafenib -0.024 | [3] 0.018

PRKCSH (UniProt P14314)
inactive: saracatinib 0.006 | sotrastaurin 0.023 | alvocidib -0.014 | Tubastatin A -0.004 | [1] 0.009 | defactinib -0.012 | rucaparib -0.045 | [2] 0.048 | encorafenib 0.018 | [3] 0.005
